# Out of some 53,000 sequences screened, about 3,700 (7%) were called active.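 The calls were made as follows: active = gene knockdowns whose robust z-score for IL-1 alpha signal is at least 2 or at most -2, so actives lie on both sides; inactive = the rest.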 The list shows a part of the results.
# Test: Components of the Cytosolic LPS Sensing Pathway: Gene Identification via Genome-wide siRNA Screen;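 also: robust z of the log signal after scaling to non-targeting control siRNA wells of the plate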
# Details: RAW264.7 macrophages, IL-1a HTRF, actives lie on both sides, screened at 100 nM (by protocol), cells primed 5 h with Pam3CSK4 first
# How it was run: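 RAW264.7 mouse macrophages reverse-transfected with single siRNAs (100 nM final) for 48h, primed with Pam3CSK4 for 5 hours, then transfected with LipidA for 24 hour. Supernatant IL-1a read by HTRF; values normalized to negative-control median, log-transformed robust z-scores.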
row,Sequence,z-score
1,GGAUGACUAUGUGAAUAUATT against 4933404G15Rik,inactive: -0.633
2,GGCGAAGAAGAAUAAAAGATT against Lyar,inactive: 1.37
3,GGUCAGCGAACCACGAUAATT against Olfr314,inactive: -0.792
4,GGAAUUAUGGAUUGUUAAGTT against Olfr212,inactive: 0.756
5,CCAUGGCACAGACAGCUAUTT against Celf1,active: -2.02
6,GGUAAAUUACCCAAAGGUATT against Mrtfa,inactive: -0.494
7,CCAUAGUUGAUGGAAGAUATT against Shld2,inactive: -0.847
8,GGGCCAUAUGUCUUUGCUATT against Olfr998,inactive: 1.1
9,GGAAACUGUACAGAUAUUGTT against Fbn2,inactive: -0.885
10,CGAUUGCUAAGGUGUUUGATT against Sfmbt1,inactive: -0.45
11,GGAGGAUCAUGGUUGGGAUTT against Zkscan8,inactive: -0.229
12,GGAGAAAGGUGGUUUGGUATT against Sap30bp,active: -2.85
13,GCAGGAAUCUAAUCUGCUGTT against Gpd1,inactive: 1.16
14,GGGACAAUAACCUGAUGCUTT against Vmn1r210,inactive: 0.15
15,GGUCCAGAUCCACCAGAUUTT against Banp,inactive: 1.11
16,GCCAAGAAGAUGGAUCCGCTT against Zfp865,inactive: -1.16
17,GGCGAUCUAUCACACUGUGTT against Chst7,inactive: -0.443
18,GGAGAAAGUCUCUCUUAGUTT against Ccdc69,inactive: 0.55
19,GCGAAUCACCACCAUCACATT against Pcbp4,inactive: -0.396
20,GGAACCUGCAUGAUAUAGGTT against Zfp617,inactive: 0.683
21,GGAUGAAUUGAUUGAGAUCTT against Sv2a,inactive: -1.24
22,CCUCUCAUUGGGAUGUUACTT against Slc9b1,inactive: -1.59

row,Sequence,z-score
1,GCGCAAGGAGAUCAUAGUCTT against Ankrd53,inactive: 0.996
2,GGAGGAGUGUGUGAAAGGATT against Terf2ip,inactive: 0.743
3,GGAGCUCACCAAAAUAGCUTT against Akr1c21,inactive: -0.77
4,GGGUUUUAUGACCUUCAAGTT against Zkscan14,inactive: 0.655
5,GGUGAUCCAGCUUUCUUGGTT against Tiaf2,inactive: -0.351
6,GGAUCUCGUGCGAAAAAAATT against Olfr809,inactive: -0.292
7,CCGCUAACUAAAAAAAUCGTT against Xiap,inactive: 0.395
8,UCACCGAAUGUCUUCUUCUTT against Olfr47,inactive: 1.93
9,GGACAACAGCAAAACAUCUTT against Atoh1,inactive: -0.757
10,GCAGAAGAAGAAGGGUUCCTT against Emx1,active: 3.59
11,GCCUUAAUGAGGGUUAUGCTT against Fbp1,inactive: -1.11
12,GCUCUUAACAACGGGUGGATT against A130079P16Rik,inactive: -1.54
13,GCUGAAAGCAUCCAAUGGGTT against Epb41,inactive: 0.0831
14,GUCACUGUGAUGGGAAAUUTT against Olfr895,inactive: -0.847
15,GGCUUUUGACUUCUUUGAGTT against Hs1bp3,inactive: -0.306
16,GCUUGGGUACUAUGUAACATT against Rbm8a,inactive: 0.313
17,GGCUCUUGGUCCAAUAAAATT against Zdhhc14,inactive: -0.803
18,GCUACUCAGUCAACUCAAGTT against Ppp1r14d,inactive: 0.119
19,GGAAGAGCACUUGAGGAUGTT against Gpank1,inactive: -0.186
20,GGAGAAGCGGCAAAUGGAATT against Fam32a,inactive: 0.429
21,CGCCAAAAGUUCUUGCCAUTT against Olfr618,active: -2.02
22,GGCAGCAAAAACAAGAGCCTT against Hmga2,inactive: -0.114

# Given bar-delimited: part of the list above.
row | Sequence | z-score
5 | GGUGAUCCAGCUUUCUUGGTT against Tiaf2 | inactive: -0.351
6 | GGAUCUCGUGCGAAAAAAATT against Olfr809 | inactive: -0.292
7 | CCGCUAACUAAAAAAAUCGTT against Xiap | inactive: 0.395
8 | UCACCGAAUGUCUUCUUCUTT against Olfr47 | inactive: 1.93
9 | GGACAACAGCAAAACAUCUTT against Atoh1 | inactive: -0.757
10 | GCAGAAGAAGAAGGGUUCCTT against Emx1 | active: 3.59

# More results:

row,Sequence,z-score
1,CCUUUAACCCUUUACACCUTT against Epop,inactive: 0.0993
2,GGGACUGAGGACUACAUUCTT against Eif1b,inactive: -1.17
3,GGGAGUUAUAUAAAUGCAUTT against Taf7l,inactive: -1.13
4,CGUGGUCAGGUUGUUUGAUTT against Cdk6,inactive: 0.885
5,GCCCAUUGUAAGAGUAACUTT against Dnttip2,inactive: 0.168
6,ACAUUCUUGGUUGAGUGCUTT against Olfr198,inactive: 0.195
7,GCUCUAUAAGCUAUCAGGGTT against Ntn1,inactive: 0.279
8,CCAUCGGCGACUUGAAGAATT against Ubl5,inactive: -0.876
9,GGCAUUUGCCAAGAAAAAUTT against Lpgat1,inactive: -1.54
10,GGAAAUGAAGAGUGUUGAATT against Slc7a3,inactive: -0.4
11,GCGUGUAAGGUCUUCAUCUTT against Ranbp3l,inactive: 0.633
12,GGACCACCUAAGUUUAAGCTT against Pde6g,inactive: -0.557
13,GGAAGAAUUUCUUGAGACATT against Gsta4,inactive: 0.102
14,GGUAGUGAGCAUUGAGAAGTT against Tbc1d8,inactive: -0.997
15,GGAGUGAAUAUUGAAAAUCTT against Ctag2,inactive: 0.234
16,GCGAAUUGCAUUCCUGUUUTT against Fam91a1,inactive: 0.809
17,GGCAAAAGAACAAAGAAAATT against Mrps5,inactive: 0.683
18,GGCUCUUAAUUGCUGAGUUTT against Acadl,inactive: 0.312
19,CCUGUCCAAUCAUCACAAGTT against Apol7a,inactive: -1.44
20,GCGAGACAAUUGUUAUUGATT against Zmym2,inactive: -1.05
21,CCGUAGUAUCCACUGAUUGTT against Olfr1322,inactive: -0.34
22,GGGAUGAUCUUAUAUGCUUTT against AA792892,inactive: 1.42

row,Sequence,z-score
1,GGGCAUCGCUUUGAGAGUATT against Srprb,inactive: -0.00327
2,GGUUUUUAGCCUGAGUGAGTT against Olfr688,inactive: -1.8
3,GGCUCUGUGCUUAAGAUGATT against Oaf,inactive: 0.113
4,GCGUCUUAUAUGGGUGGCUTT against Olfr1016,inactive: 0.43
5,GGGAUCCCACCUGAAAAAATT against Poc1a,inactive: -0.162
6,GGAAGUUGUGGAAGAAGACTT against Syf2,inactive: 0.856
7,GGAUUGGAACUAUUCUGUATT against Syvn1,inactive: 0.839
8,GGGAAAUCUAUGGUGCUGUTT against Mpz,inactive: -0.665
9,CCAACGACAUGUACGACCUTT against Rest,inactive: -0.54
10,GGAUUUAAGAAUGAAUGCCTT against Kcnip4,inactive: -0.579
11,GGAUAUGAUGUCAAACCCUTT against Ubqln4,inactive: -1.77
12,GGACUCAGACAAGAUCUGCTT against Ctdsp1,inactive: -1.38
13,GCAAACGUACCAUCUACACTT against Uckl1,inactive: 1.99
14,GCUAUGACCAACCUAGAGATT against Sox5,inactive: -0.401
15,GGUCACCGUCAAGUACGACTT against Ppp1r14b,inactive: -0.39
16,CCCAGGCUAUUUCAACAAUTT against Arhgef11,inactive: -1.24
17,GCUCAACCUAACUUUGUGGTT against Ccdc3,inactive: 0.421
18,GGUACCAAUUGAAGAUAUATT against Ncoa7,active: 2.2
19,GCAAGAAGGUGAAGUGCAGTT against Fxyd7,inactive: 0.322
20,CCAGCAUAUUGGAACUACUTT against Olfr986,inactive: -1.15
21,CCUCUACCCAGAUUAUGCATT against Grik1,inactive: 0.559
22,CCCAGUUGACAGGAGACCATT against Hps6,inactive: 1.13

row,Sequence,z-score
1,GCAUAUCACAUCCGAAUACTT against Per1,inactive: -0.223
2,GCAGUGUCAAAAAGAGCCATT against G930045G22Rik,inactive: -1.69
3,GCAAACCUUCGGUCUUGCCTT against Cd5l,inactive: -0.364
4,GGUCCUGAUGAAGUUGUAGTT against Dcun1d5,inactive: 0.365
5,GGGUAUGAGUGCAGACUAUTT against Zcchc9,inactive: 0.803
6,GCCUCGUGAAUAAUUGAAATT against Ddt,inactive: 0.967
7,CGUGGAAUGAAGAUUGUCCTT against Hsd17b12,inactive: 0.284
8,GGCUCAUGUAAGAUAAUUATT against Kcns3,inactive: -1.03
9,GGUUCACCACCUGCUACAATT against Pmf1,inactive: -0.547
10,CGUAGAUGCUUCCAAGAUGTT against Ube2g2,inactive: -1
11,GGCAAACAAUAAAGUGUGGTT against Bpgm,inactive: 0.897
12,GGAUUUGAGUUACACUCAGTT against Mapk10,inactive: -1.27
13,CCAGAGAUGACCGUCUUAATT against Hddc2,inactive: 0.204
14,GGAGGCAGCUCCUAUGAUGTT against Rbm28,inactive: 0.378
15,GGAAAUCGAGCAAAAGACATT against Cep104,inactive: 1.5
16,GGGAUCAUGGAUUUCUUCCTT against Tmem119,inactive: 0.393
17,GGUUCGACUGAAAACUUUCTT against Vamp2,inactive: 0.595
18,CCUGCAUUUGCCGAACUUATT against Stk26,inactive: 0.428
19,GGGAACCAGUACAAUUACATT against Glt8d1,inactive: -0.755

# Source: PubChem BioAssay AID1508600 (Functional Genomics Laboratory (NCATS/FGL), 2020)
